The list shows a part of the results.
Assays:
Assay in all cases: log2 fold change, soluble protein after heating vs DMSO (PISA); higher = thermal stabilisation; K562 cells, 10 uM, 30 min; active = over 0.2 and 3.5 SD of the protein, either way, in both replicates (recomputed)
[1] = compound: CC[C@@H]1C(=O)N(C)c2cnc(Nc3ccc(C(=O)NC4CCN(C)CC4)cc3OC)nc2N1C1CCCC1
Procedure, shortened: (§1)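 K562 cells at 2×10^6 cells/mL were treated for 30 min with 10 μM compound, and aliquots were heated for 3 min over 48°C-58°C before pooling. Extraction used PBS with 0.5% NP-40 at 4°C, and soluble protein was the supernatant after 21,000xg for 90 min, measured by TMTpro 16plex LC-MS/MS with channel sums equalised. Thermal stability values, relative to control samples and from duplicates, are log2 fold changes.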

The chains behind the UniProt entries cited, without tags or fusion partners. Where a name states a change or a piece, a line headed by the entry shows the natural chain unless it says otherwise.
UniProt P09958, whole entry, looked up: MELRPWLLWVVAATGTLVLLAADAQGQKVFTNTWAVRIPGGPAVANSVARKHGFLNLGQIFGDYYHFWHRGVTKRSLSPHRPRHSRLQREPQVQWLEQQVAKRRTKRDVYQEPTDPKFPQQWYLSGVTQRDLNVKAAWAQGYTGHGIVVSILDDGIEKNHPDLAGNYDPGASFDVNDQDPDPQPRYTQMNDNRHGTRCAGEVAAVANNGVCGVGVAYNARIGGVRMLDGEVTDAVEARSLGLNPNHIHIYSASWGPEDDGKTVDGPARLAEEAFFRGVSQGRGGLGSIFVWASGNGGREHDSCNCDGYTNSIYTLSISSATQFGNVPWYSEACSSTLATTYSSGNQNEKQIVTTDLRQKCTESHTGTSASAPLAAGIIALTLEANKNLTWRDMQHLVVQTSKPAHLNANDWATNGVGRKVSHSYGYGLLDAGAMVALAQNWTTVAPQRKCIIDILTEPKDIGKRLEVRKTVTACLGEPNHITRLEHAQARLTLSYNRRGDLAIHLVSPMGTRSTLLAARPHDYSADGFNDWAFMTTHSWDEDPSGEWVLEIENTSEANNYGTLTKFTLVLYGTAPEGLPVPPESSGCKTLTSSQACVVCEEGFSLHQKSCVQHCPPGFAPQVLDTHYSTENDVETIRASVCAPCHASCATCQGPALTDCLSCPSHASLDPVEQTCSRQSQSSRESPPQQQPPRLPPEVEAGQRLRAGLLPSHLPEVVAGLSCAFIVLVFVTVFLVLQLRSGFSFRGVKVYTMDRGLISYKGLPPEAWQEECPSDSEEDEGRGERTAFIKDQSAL
UniProt Q13480: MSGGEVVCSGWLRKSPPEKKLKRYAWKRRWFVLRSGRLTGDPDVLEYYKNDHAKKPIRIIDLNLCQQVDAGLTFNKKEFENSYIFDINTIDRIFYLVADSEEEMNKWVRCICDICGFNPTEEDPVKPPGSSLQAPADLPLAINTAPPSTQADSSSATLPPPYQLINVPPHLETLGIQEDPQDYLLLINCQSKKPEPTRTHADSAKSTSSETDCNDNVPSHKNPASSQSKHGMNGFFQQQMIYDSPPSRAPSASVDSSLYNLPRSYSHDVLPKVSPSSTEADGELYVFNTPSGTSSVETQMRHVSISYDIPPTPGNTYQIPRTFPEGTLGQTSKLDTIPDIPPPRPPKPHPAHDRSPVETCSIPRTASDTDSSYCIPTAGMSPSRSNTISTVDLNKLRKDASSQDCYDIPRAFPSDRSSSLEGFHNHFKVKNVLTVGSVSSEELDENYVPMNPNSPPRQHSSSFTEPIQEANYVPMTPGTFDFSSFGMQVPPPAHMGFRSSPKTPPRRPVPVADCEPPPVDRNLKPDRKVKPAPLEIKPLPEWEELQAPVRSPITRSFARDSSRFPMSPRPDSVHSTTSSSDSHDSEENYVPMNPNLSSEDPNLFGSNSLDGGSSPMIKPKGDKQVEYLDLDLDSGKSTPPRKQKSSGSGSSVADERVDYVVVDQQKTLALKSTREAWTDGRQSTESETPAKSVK
UniProt P22102: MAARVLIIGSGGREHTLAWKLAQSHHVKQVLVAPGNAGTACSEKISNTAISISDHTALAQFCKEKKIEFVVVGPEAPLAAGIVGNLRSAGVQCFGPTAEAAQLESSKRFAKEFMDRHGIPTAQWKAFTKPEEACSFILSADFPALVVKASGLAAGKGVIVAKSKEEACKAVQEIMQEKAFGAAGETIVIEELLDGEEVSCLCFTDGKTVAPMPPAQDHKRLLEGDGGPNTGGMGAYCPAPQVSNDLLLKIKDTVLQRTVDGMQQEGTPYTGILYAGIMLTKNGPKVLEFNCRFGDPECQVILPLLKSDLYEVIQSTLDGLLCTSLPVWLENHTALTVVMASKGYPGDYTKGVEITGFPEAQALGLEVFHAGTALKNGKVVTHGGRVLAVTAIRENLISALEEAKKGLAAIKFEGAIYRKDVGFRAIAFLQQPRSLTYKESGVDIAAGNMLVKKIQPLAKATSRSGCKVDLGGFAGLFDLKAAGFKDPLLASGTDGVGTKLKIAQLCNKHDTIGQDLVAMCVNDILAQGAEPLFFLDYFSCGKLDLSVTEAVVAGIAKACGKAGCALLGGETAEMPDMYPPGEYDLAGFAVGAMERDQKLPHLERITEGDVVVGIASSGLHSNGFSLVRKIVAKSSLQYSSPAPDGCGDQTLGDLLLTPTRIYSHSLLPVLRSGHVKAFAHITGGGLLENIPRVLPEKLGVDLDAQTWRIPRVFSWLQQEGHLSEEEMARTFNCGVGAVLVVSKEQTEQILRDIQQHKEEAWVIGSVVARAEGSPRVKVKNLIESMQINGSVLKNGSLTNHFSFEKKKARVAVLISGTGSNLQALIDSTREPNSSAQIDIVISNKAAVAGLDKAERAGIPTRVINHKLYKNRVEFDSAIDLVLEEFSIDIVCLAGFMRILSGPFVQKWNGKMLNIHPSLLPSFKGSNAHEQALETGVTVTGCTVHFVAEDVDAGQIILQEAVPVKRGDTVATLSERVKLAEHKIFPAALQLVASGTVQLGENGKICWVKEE
UniProt Q6NT46: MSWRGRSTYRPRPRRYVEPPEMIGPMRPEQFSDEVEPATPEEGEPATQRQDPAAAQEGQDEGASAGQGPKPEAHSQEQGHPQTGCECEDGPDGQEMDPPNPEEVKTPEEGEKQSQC
UniProt P38435: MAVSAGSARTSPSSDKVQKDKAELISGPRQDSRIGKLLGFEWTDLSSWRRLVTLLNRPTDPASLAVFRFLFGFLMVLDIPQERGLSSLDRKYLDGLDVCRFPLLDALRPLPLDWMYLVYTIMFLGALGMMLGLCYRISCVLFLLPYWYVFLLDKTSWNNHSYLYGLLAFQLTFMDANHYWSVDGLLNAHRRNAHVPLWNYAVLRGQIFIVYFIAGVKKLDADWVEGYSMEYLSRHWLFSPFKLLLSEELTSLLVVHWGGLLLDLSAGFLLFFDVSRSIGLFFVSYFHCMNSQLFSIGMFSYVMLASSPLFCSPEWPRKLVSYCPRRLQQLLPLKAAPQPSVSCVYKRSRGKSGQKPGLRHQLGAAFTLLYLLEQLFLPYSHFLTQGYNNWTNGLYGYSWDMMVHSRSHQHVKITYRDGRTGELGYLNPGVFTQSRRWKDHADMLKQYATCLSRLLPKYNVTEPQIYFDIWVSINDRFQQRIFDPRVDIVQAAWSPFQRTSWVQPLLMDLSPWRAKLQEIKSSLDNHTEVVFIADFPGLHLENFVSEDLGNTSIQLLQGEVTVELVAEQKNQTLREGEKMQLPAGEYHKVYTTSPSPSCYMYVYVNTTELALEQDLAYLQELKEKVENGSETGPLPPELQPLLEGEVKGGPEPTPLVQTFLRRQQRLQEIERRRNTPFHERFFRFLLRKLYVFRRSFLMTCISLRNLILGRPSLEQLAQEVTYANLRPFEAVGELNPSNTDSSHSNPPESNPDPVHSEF
UniProt Q9UN86: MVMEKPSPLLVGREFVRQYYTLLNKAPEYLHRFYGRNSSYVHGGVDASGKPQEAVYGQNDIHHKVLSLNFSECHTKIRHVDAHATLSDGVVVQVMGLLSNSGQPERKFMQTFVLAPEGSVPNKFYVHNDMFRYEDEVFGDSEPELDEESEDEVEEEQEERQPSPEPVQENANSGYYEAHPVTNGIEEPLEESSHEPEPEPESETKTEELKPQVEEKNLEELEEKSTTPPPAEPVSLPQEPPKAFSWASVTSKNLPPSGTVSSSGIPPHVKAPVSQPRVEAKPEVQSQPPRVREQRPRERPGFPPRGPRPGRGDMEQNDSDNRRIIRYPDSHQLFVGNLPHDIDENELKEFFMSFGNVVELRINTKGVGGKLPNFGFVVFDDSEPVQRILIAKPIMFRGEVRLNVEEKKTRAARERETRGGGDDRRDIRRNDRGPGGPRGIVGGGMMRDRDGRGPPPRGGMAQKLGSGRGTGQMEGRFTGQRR
UniProt Q06210: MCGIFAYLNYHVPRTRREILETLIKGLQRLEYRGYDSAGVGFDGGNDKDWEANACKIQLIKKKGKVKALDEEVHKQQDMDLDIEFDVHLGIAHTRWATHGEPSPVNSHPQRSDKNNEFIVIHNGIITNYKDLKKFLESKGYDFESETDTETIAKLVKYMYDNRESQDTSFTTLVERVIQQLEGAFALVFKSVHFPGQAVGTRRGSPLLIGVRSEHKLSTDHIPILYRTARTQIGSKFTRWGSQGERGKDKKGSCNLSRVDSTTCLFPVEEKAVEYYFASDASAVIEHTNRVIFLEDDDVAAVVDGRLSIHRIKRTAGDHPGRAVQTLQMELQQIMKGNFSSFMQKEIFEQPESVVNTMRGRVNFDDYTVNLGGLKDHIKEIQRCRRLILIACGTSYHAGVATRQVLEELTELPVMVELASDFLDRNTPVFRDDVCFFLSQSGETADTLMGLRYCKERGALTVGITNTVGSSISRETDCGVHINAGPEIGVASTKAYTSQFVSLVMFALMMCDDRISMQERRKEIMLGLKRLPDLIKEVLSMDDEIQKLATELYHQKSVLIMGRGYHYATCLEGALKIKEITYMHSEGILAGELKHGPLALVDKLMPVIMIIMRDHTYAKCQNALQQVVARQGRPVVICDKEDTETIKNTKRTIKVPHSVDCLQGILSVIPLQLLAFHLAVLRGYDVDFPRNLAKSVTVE
UniProt P16383: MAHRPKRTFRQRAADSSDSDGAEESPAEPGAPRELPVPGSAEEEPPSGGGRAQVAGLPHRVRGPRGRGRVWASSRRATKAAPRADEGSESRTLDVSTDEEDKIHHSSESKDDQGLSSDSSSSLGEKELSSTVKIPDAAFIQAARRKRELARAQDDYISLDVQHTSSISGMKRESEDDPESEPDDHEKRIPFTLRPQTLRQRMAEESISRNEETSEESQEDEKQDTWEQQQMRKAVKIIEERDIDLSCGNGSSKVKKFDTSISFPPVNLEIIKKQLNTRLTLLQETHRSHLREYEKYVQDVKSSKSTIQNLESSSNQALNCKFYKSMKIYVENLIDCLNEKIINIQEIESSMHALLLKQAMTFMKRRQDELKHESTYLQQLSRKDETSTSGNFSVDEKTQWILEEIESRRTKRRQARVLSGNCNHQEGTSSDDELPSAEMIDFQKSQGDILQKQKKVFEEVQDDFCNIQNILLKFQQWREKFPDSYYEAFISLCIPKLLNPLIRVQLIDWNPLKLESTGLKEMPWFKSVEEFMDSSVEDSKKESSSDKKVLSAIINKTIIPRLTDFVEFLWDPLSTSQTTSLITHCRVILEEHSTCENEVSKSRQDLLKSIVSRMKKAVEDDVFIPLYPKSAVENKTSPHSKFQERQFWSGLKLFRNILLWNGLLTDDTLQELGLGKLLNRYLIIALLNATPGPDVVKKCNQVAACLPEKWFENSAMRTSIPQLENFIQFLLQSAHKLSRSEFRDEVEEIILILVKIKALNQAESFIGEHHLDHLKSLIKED
UniProt Q9BWH2: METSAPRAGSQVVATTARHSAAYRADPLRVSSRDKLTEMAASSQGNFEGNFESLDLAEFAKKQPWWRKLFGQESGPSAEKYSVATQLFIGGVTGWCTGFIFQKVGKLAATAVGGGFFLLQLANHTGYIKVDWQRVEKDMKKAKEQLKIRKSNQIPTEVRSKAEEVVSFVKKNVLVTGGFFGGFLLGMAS
UniProt Q7L5D6: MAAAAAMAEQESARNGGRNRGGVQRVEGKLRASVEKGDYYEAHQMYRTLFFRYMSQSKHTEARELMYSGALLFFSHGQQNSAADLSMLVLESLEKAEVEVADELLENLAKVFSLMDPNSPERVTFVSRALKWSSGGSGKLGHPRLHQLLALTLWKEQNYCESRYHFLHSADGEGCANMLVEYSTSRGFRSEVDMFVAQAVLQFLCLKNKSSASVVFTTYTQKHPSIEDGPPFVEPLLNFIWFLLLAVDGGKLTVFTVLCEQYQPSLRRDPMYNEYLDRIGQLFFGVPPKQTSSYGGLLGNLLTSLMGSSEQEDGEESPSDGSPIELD
UniProt Q96AE4: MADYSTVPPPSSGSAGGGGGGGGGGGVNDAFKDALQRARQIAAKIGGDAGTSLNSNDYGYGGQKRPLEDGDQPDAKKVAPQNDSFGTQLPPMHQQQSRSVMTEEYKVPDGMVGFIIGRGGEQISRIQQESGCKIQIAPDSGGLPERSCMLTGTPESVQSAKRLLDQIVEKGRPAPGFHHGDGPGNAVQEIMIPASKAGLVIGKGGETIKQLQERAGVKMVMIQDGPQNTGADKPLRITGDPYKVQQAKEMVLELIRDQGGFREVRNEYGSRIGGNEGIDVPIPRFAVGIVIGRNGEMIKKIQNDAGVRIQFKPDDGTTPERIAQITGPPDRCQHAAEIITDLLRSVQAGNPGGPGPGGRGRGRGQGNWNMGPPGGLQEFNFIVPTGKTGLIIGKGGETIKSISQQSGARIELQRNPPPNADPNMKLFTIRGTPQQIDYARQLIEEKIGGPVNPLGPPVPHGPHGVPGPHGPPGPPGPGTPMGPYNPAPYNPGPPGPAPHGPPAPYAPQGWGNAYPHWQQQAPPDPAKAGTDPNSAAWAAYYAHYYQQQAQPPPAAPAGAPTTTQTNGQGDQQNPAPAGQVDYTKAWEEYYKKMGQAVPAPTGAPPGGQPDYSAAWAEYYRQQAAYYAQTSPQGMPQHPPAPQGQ

volasertib = compound: CC[C@@H]1C(=O)N(C)c2cnc(Nc3ccc(C(=O)N[C@H]4CC[C@H](N5CCN(CC6CC6)CC5)CC4)cc3OC)nc2N1C(C)C [volasertib]
Procedure, shortened: as §1

[2] = compound: CC[C@H](C)N1C=C(C2=C(C=C(C=C21)C3=CN=C(C=C3)N4CCNCC4)C(=O)NCC5=C(C=C(NC5=O)C)C)C
Procedure, shortened: as §1

epoxomicin = compound: CC[C@H](C)[C@@H](C(=O)N[C@@H]([C@@H](C)O)C(=O)N[C@@H](CC(C)C)C(=O)[C@]1(CO1)C)NC(=O)[C@H]([C@@H](C)CC)N(C)C(=O)C [epoxomicin]
Procedure, shortened: as §1

[3] = compound: CCn1c(C(=O)N(C2CC2)C2CC2)cc2c3c(ncn3C)c(Nc3cc(C)n(C)n3)nc21
Procedure, shortened: as §1

[4] = compound: CCn1cc(-c2ccnc3[nH]c(-c4cccc(CN(C)C)c4)cc23)c(-c2ccc(NC(=O)N(C)C)cc2)n1
Procedure, shortened: as §1

[5] = compound: CN(C)CC(=O)Nc1ccc2[nH]c(=O)c3ccccc3c2c1
Procedure, shortened: as §1

rosiglitazone = compound: CN(CCOC1=CC=C(C=C1)C[C@H]2C(=O)NC(=O)S2)C3=CC=CC=N3 (racemic) [rosiglitazone]
Procedure, shortened: as §1

[6] = compound: CN1C2=C(C3=C1C(=O)N(N=C3)CC4=CC(=CC=C4)N)SC(=C2)S(=O)C
Procedure, shortened: as §1

[7] = compound: CN1CCC(CNc2ccc3ncc(-c4cccc(OC(F)(F)F)c4)n3n2)CC1
Procedure, shortened: as §1

saracatinib = compound: CN1CCN(CCOc2cc(OC3CCOCC3)c3c(Nc4c(Cl)ccc5c4OCO5)ncnc3c2)CC1 [saracatinib]
Procedure, shortened: as §1

sotrastaurin = compound: CN1CCN(c2nc(C3=C(c4c[nH]c5ccccc45)C(=O)NC3=O)c3ccccc3n2)CC1 [sotrastaurin]
Procedure, shortened: as §1

alvocidib = compound: CN1CC[C@H](c2c(O)cc(O)c3c(=O)cc(-c4ccccc4Cl)oc23)[C@H](O)C1 [alvocidib]
Procedure, shortened: as §1

Tubastatin A = compound: CN1CCc2c(c3ccccc3n2Cc2ccc(C(=O)NO)cc2)C1 [Tubastatin A]
Procedure, shortened: as §1

[8] = compound: CNC(=O)C1=CC=CC=C1NC2=NC(=NC=C2Cl)NC3=C(C=C(C=C3)N4CCOCC4)OC
Procedure, shortened: as §1

defactinib = compound: CNC(=O)c1ccc(Nc2ncc(C(F)(F)F)c(NCc3nccnc3N(C)S(C)(=O)=O)n2)cc1 [defactinib]
Procedure, shortened: as §1

rucaparib = compound: CNCc1ccc(-c2[nH]c3cc(F)cc4c3c2CCNC4=O)cc1 [rucaparib]
Procedure, shortened: as §1

[9] = compound: CNc1nc(-c2ccc3c(N)n[nH]c3c2)cc(N2C[C@@H](C(=O)NC3CCCCC3)CC[C@H]2C)n1
Procedure, shortened: as §1

encorafenib = compound: COC(=O)N[C@@H](C)CNc1nccc(-c2cn(C(C)C)nc2-c2cc(Cl)cc(NS(C)(=O)=O)c2F)n1 [encorafenib]
Procedure, shortened: as §1

[10] = compound: COC(=O)[C@H](CCSC)NC(=O)C1=C(C=C(C=C1)NC[C@H](CS)N)C2=CC=CC=C2
Procedure, shortened: as §1

Measured: log2 fold change

FURIN (UniProt P09958)
inactive: [1] -0.217 | volasertib -0.011 | [2] 0.008 | epoxomicin -0.016 | [3] 0.074 | [4] 0.049 | [5] 0.061 | rosiglitazone -0.022 | [6] 0.082 | [7] -0.042 | saracatinib 0.031 | sotrastaurin -0.093 | alvocidib 0.006 | Tubastatin A -0.008 | [8] 0.037 | defactinib -0.052 | rucaparib -0.104 | [9] -0.076 | encorafenib 0 | [10] -0.044

GAB1 isoform 2 (UniProt Q13480)
inactive: [1] -0.149 | volasertib 0.003 | [2] 0.055 | epoxomicin 0.005 | [3] -0.037 | [4] 0.041 | [5] 0 | rosiglitazone 0.004 | [6] 0.024 | [7] -0.094 | saracatinib 0.06 | sotrastaurin 0.032 | alvocidib -0.027 | Tubastatin A -0.064 | [8] -0.053 | defactinib -0.076 | rucaparib 0.087 | [9] -0.011 | encorafenib -0.074 | [10] 0.131

GART (UniProt P22102)
inactive: [1] -0.093 | volasertib -0.078 | [2] 0.037 | epoxomicin -0.01 | [3] -0.005 | [4] -0.009 | [5] 0.052 | rosiglitazone 0.057 | [6] -0.05 | [7] -0.009 | saracatinib -0.037 | sotrastaurin 0 | alvocidib -0.063 | Tubastatin A 0.041 | [8] 0.053 | defactinib -0.03 | rucaparib -0.029 | [9] 0.08 | encorafenib 0.045 | [10] -0.061

GALNT7 (UniProt Q86SF2)
inactive: [1] -0.082 | volasertib -0.149 | [2] 0.061 | epoxomicin 0.059 | [3] 0.004 | [4] -0.086 | [5] -0.022 | rosiglitazone 0.021 | [6] -0.084 | [7] -0.02 | saracatinib 0.026 | sotrastaurin -0.099 | alvocidib -0.075 | Tubastatin A 0.003 | [8] -0.033 | defactinib -0.018 | rucaparib -0.018 | [9] -0.001 | encorafenib 0.021 | [10] -0.012

GAGE2A (UniProt Q6NT46)
inactive: [1] 0.025 | volasertib 0.042 | [2] -0.008 | epoxomicin 0 | [3] -0.022 | [4] 0.014 | [5] 0.056 | rosiglitazone -0.023 | [6] 0.034 | [7] -0.001 | saracatinib -0.044 | sotrastaurin 0.033 | alvocidib -0.002 | Tubastatin A 0.013 | [8] 0.019 | defactinib -0.035 | rucaparib -0.034 | [9] -0.068 | encorafenib -0.049 | [10] 0.105

Quoted at random: 2 entries already listed, in no set order.
FURIN (UniProt P09958)
inactive: [1] -0.217 | volasertib -0.011 | [2] 0.008 | epoxomicin -0.016 | [3] 0.074 | [4] 0.049 | [5] 0.061 | rosiglitazone -0.022 | [6] 0.082 | [7] -0.042 | saracatinib 0.031 | sotrastaurin -0.093 | alvocidib 0.006 | Tubastatin A -0.008 | [8] 0.037 | defactinib -0.052 | rucaparib -0.104 | [9] -0.076 | encorafenib 0 | [10] -0.044

GAGE2A (UniProt Q6NT46)
inactive: [1] 0.025 | volasertib 0.042 | [2] -0.008 | epoxomicin 0 | [3] -0.022 | [4] 0.014 | [5] 0.056 | rosiglitazone -0.023 | [6] 0.034 | [7] -0.001 | saracatinib -0.044 | sotrastaurin 0.033 | alvocidib -0.002 | Tubastatin A 0.013 | [8] 0.019 | defactinib -0.035 | rucaparib -0.034 | [9] -0.068 | encorafenib -0.049 | [10] 0.105

Next part.

GGCX (UniProt P38435)
inactive: [1] -0.061 | volasertib -0.083 | [2] 0.017 | epoxomicin -0.004 | [3] 0.027 | [4] 0.005 | [5] 0.022 | rosiglitazone -0.043 | [6] 0.041 | [7] 0.056 | saracatinib -0.113 | sotrastaurin -0.024 | alvocidib -0.011 | Tubastatin A 0.07 | [8] -0.025 | defactinib 0.015 | rucaparib 0.057 | [9] 0.028 | encorafenib -0.112 | [10] -0.027

G3BP2 (UniProt Q9UN86)
inactive: [1] 0.185 | volasertib 0.269 | [2] 0.054 | epoxomicin -0.193 | [3] 0.014 | [4] 0.128 | [5] -0.071 | rosiglitazone -0.135 | [6] 0.197 | [7] 0.201 | saracatinib -0.07 | sotrastaurin 0.021 | alvocidib 0.227 | Tubastatin A 0.082 | [8] 0.129 | defactinib 0.237 | rucaparib 0.278 | [9] 0.018 | encorafenib 0.075 | [10] 0.063

GFPT1 (UniProt Q06210)
inactive: [1] 0.027 | volasertib 0.065 | [2] 0.022 | epoxomicin -0.01 | [3] -0.023 | [4] -0.084 | [5] 0.007 | rosiglitazone 0.024 | [6] -0.094 | [7] -0.003 | saracatinib 0.05 | sotrastaurin 0.004 | alvocidib -0.105 | Tubastatin A -0.007 | [8] -0.009 | defactinib -0.062 | rucaparib -0.034 | [9] 0.006 | encorafenib 0.012 | [10] -0.003

GALT (UniProt P07902)
inactive: [1] 0.073 | volasertib 0.013 | [2] -0.201 | epoxomicin 0.014 | [3] -0.022 | [4] -0.007 | [5] 0.029 | rosiglitazone -0.008 | [6] 0.064 | [7] -0.002 | saracatinib 0.018 | sotrastaurin -0.139 | alvocidib -0.159 | Tubastatin A -0.048 | [8] -0.029 | defactinib -0.109 | rucaparib 0.035 | [9] 0.015 | encorafenib -0.263 | [10] 0.002

GCFC2 (UniProt P16383)
inactive: [1] -0.005 | volasertib -0.053 | [2] 0.131 | epoxomicin 0.05 | [3] 0.011 | [4] 0.197 | [5] -0.011 | rosiglitazone -0.117 | [6] -0.068 | [7] -0.145 | saracatinib 0.138 | sotrastaurin 0.118 | alvocidib -0.142 | Tubastatin A 0.005 | [8] -0.059 | defactinib -0.1 | rucaparib 0.021 | [9] -0.059 | encorafenib -0.057 | [10] -0.041

FUNDC2 (UniProt Q9BWH2)
inactive: [1] 0.014 | volasertib 0.143 | [2] -0.062 | epoxomicin -0.015 | [3] -0.013 | [4] 0.027 | [5] -0.004 | rosiglitazone -0.009 | [6] -0.064 | [7] -0.015 | saracatinib -0.006 | sotrastaurin 0.088 | alvocidib 0.019 | Tubastatin A -0.023 | [8] 0.028 | defactinib 0.01 | rucaparib -0.031 | [9] -0.063 | encorafenib -0.017 | [10] -0.021

GADD45GIP1 (UniProt Q8TAE8)
inactive: [1] 0.039 | volasertib 0.152 | [2] -0.003 | epoxomicin 0.05 | [3] -0.07 | [4] -0.039 | [5] 0.013 | rosiglitazone -0.081 | [6] 0.007 | [7] -0.026 | saracatinib -0.076 | sotrastaurin 0.025 | alvocidib 0.105 | Tubastatin A 0.054 | [8] 0.01 | defactinib 0.062 | rucaparib 0.022 | [9] 0.035 | encorafenib 0.012 | [10] 0.014

GET4 (UniProt Q7L5D6)
inactive: [1] -0.032 | volasertib -0.136 | [2] 0.083 | epoxomicin -0.043 | [3] 0.037 | [4] -0.169 | [5] 0.093 | rosiglitazone 0 | [6] 0.026 | [7] -0.136 | saracatinib 0.007 | sotrastaurin 0.009 | alvocidib -0.01 | Tubastatin A 0.013 | [8] 0.041 | defactinib -0.061 | rucaparib 0.08 | [9] 0.008 | encorafenib 0.043 | [10] -0.044

GGCT (UniProt O75223)
inactive: [1] 0.012 | volasertib 0.052 | [2] -0.02 | epoxomicin 0.051 | [3] -0.015 | [4] -0.069 | [5] 0.003 | rosiglitazone 0.029 | [6] -0.054 | [7] -0.048 | saracatinib -0.006 | sotrastaurin 0.027 | alvocidib -0.057 | Tubastatin A -0.028 | [8] -0.024 | defactinib 0.001 | rucaparib -0.016 | [9] 0.024 | encorafenib -0.051 | [10] -0.001

FTSJ1 (UniProt Q9UET6)
inactive: [1] -0.016 | volasertib 0.012 | [2] 0.023 | epoxomicin -0.007 | [3] -0.067 | [4] -0.004 | [5] -0.012 | rosiglitazone 0.047 | [6] -0.077 | [7] -0.082 | saracatinib -0.035 | sotrastaurin 0.205 | alvocidib -0.046 | Tubastatin A 0.003 | [8] -0.078 | defactinib -0.012 | rucaparib 0.037 | [9] 0.059 | encorafenib -0.034 | [10] -0.053

FUBP1 (UniProt Q96AE4)
inactive: [1] -0.013 | volasertib 0.092 | [2] 0.013 | epoxomicin 0.061 | [3] -0.021 | [4] 0.007 | [5] 0.101 | rosiglitazone 0.017 | [6] -0.039 | [7] 0.203 | saracatinib 0.073 | sotrastaurin -0.005 | alvocidib 0.083 | Tubastatin A 0.095 | [8] 0.016 | defactinib -0.011 | rucaparib 0.046 | [9] -0.143 | encorafenib 0.08 | [10] -0.096

— the supplement of paper PMC10849652
